# Experimental data as given in the supplement of paper PMC6411743.
# ± gives the standard deviation of the averaged measurements. This is a selection; strong and weak results do not stand in their true shares.
# Experiments:
# Test in all cases: NP40-soluble protein abundance relative to vehicle (solubility fold change) (ratio); higher = more soluble protein in presence of ATP
# NT5C3B = molecular target: T1, NT5C3B (UniProt Q969T7)
# T1 sequence (whole entry): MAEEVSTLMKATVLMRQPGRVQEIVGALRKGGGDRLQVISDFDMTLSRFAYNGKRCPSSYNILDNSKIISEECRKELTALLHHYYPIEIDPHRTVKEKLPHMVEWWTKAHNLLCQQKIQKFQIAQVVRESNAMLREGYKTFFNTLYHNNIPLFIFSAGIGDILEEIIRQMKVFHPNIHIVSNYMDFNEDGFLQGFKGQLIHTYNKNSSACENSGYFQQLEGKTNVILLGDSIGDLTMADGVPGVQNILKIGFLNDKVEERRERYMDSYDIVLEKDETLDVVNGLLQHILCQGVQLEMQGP
# Outline: (§1)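 Data come from three independent experiments in which Dounce-homogenised Jurkat crude lysate was treated at eight concentrations from 0.1 to 10 mM. Treatment ran 10 min at room temperature and then 3 min at 37 °C, after which 0.8% NP40 and benzonase were added for 60 min at 4 °C before ultracentrifugation. The supernatant underwent TMT labelling and LC-MS/MS, and vsn-normalised intensities were expressed as fold change against the detergent-processed vehicle in each replicate.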
# NUDT8 = molecular target: T2, NUDT8 (UniProt Q8WV74)
# T2 sequence (whole entry): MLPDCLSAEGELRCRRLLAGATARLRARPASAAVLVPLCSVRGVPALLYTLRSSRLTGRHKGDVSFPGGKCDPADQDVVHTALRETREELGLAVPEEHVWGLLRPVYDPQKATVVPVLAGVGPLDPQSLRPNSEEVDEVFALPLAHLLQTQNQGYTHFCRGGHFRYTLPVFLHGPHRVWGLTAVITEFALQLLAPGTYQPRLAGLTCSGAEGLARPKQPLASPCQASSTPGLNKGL
# Outline: as §1
# PIBF1 = molecular target: T3, PIBF1 (UniProt Q8WXW3)
# T3 sequence (whole entry): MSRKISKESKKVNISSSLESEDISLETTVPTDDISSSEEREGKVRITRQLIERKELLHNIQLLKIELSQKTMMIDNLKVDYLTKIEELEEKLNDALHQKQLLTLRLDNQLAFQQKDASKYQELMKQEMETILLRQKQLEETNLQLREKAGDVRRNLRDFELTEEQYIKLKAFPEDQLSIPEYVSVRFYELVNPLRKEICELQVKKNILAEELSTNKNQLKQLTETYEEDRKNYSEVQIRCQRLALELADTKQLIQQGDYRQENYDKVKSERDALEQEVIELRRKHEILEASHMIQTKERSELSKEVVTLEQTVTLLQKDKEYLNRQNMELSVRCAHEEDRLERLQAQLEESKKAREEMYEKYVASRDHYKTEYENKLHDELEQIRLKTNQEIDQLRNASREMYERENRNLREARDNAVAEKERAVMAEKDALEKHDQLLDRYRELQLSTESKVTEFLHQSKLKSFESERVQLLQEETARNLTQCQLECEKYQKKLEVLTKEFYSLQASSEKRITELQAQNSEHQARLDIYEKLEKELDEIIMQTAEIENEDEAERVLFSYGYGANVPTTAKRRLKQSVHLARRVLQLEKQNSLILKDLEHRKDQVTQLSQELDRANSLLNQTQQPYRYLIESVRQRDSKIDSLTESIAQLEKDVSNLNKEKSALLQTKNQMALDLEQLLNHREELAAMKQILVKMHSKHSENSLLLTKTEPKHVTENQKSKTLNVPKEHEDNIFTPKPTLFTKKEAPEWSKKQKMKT
# Outline: as §1
# RNF166 = molecular target: T4, RNF166 (UniProt Q96A37)
# T4 sequence (whole entry): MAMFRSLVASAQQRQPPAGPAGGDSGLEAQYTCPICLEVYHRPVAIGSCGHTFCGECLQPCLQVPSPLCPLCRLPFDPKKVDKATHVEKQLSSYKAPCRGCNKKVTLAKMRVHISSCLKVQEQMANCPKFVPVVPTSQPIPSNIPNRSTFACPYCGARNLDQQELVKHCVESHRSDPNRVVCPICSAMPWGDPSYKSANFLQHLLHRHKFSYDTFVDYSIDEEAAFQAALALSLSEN
# Outline: as §1
# RNF25 = molecular target: T5, RNF25 (UniProt Q96BH1)
# T5 sequence (whole entry): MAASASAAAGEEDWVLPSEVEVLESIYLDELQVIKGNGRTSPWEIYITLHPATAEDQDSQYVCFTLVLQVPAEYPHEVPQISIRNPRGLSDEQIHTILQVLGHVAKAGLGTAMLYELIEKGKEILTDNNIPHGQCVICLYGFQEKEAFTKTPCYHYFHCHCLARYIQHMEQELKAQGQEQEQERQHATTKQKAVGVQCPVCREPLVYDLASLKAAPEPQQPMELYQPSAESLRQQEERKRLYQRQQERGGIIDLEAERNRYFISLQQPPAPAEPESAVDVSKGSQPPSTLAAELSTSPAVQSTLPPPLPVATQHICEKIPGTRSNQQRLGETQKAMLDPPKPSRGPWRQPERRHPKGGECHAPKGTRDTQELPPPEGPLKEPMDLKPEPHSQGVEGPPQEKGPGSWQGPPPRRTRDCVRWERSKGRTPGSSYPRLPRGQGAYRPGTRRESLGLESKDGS
# Outline: as §1
# SECISBP2L = molecular target: T6, SECISBP2L (UniProt Q93073)
# T6 sequence (whole entry): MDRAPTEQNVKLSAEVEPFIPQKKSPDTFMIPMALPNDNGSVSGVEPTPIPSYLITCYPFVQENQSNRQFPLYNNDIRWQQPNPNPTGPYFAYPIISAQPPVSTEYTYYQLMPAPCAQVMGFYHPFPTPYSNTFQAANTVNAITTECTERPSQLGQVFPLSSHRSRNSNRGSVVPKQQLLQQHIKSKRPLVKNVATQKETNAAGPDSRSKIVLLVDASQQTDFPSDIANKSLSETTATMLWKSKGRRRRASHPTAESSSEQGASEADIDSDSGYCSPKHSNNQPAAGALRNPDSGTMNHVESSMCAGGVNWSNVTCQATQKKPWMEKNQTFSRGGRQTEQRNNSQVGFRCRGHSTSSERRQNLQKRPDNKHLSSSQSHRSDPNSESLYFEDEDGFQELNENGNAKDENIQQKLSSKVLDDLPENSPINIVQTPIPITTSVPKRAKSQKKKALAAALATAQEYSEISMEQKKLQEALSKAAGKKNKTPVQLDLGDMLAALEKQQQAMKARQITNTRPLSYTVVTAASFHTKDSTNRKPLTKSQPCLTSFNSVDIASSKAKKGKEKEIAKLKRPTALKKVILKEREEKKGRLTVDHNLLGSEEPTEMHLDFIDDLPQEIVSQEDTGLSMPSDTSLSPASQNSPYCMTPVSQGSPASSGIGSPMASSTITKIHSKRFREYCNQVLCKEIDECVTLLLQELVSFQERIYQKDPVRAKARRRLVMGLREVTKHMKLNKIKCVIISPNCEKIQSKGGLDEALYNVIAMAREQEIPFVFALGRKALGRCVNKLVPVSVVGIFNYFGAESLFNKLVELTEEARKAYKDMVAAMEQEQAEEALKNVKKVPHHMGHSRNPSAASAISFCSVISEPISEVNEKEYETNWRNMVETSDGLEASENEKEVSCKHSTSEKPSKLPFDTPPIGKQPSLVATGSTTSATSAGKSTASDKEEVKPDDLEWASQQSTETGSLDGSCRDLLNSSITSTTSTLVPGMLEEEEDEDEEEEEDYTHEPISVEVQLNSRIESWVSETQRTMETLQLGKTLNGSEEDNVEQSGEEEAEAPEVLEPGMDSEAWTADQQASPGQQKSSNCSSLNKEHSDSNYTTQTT
# Outline: as §1
compound,measurement,setting,value
Nc1ncnc2c1ncn2[C@@H]1O[C@H](COP(=O)(O)OP(=O)(O)OP(=O)(O)O)[C@@H](O)[C@H]1O [adenosine triphosphate],NP40-soluble protein abundance,NT5C3B; concentration: 6mM,0.936 ± 0.036
same,NP40-soluble protein abundance,NT5C3B; concentration: 8mM,0.96 ± 0.024
same,NP40-soluble protein abundance,NT5C3B; concentration: 10mM,0.957 ± 0.016
same,NP40-soluble protein abundance,NUDT8; concentration: 1mM,0.983 ± 0.073
same,NP40-soluble protein abundance,NUDT8; concentration: 2mM,0.965 ± 0.047
same,NP40-soluble protein abundance,NUDT8; concentration: 4mM,0.983 ± 0.037
same,NP40-soluble protein abundance,NUDT8; concentration: 6mM,0.921 ± 0.071
same,NP40-soluble protein abundance,NUDT8; concentration: 8mM,1 ± 0.019
same,NP40-soluble protein abundance,NUDT8; concentration: 10mM,0.938 ± 0.053
same,NP40-soluble protein abundance,PIBF1; concentration: 1mM,1.02 ± 0.05
same,NP40-soluble protein abundance,PIBF1; concentration: 2mM,1.07 ± 0.11
same,NP40-soluble protein abundance,PIBF1; concentration: 4mM,1.07 ± 0.033
same,NP40-soluble protein abundance,PIBF1; concentration: 6mM,1.02 ± 0.042
same,NP40-soluble protein abundance,PIBF1; concentration: 8mM,1.04 ± 0.074
same,NP40-soluble protein abundance,PIBF1; concentration: 10mM,1.01 ± 0.027
same,NP40-soluble protein abundance,RNF166; concentration: 1mM,0.825 ± 0.053
same,NP40-soluble protein abundance,RNF166; concentration: 2mM,0.922 ± 0.024
same,NP40-soluble protein abundance,RNF166; concentration: 4mM,0.887 ± 0.088
same,NP40-soluble protein abundance,RNF166; concentration: 6mM,0.962 ± 0.1
same,NP40-soluble protein abundance,RNF166; concentration: 8mM,0.907 ± 0.054
same,NP40-soluble protein abundance,RNF166; concentration: 10mM,0.927 ± 0.062
same,NP40-soluble protein abundance,RNF25; concentration: 1mM,0.989 ± 0.084
same,NP40-soluble protein abundance,RNF25; concentration: 2mM,0.954 ± 0.11
same,NP40-soluble protein abundance,RNF25; concentration: 4mM,0.956 ± 0.082
same,NP40-soluble protein abundance,RNF25; concentration: 6mM,0.935 ± 0.055
same,NP40-soluble protein abundance,RNF25; concentration: 8mM,0.89 ± 0.092
same,NP40-soluble protein abundance,RNF25; concentration: 10mM,0.882 ± 0.086
same,NP40-soluble protein abundance,SECISBP2L; concentration: 1mM,0.914 ± 0.075
same,NP40-soluble protein abundance,SECISBP2L; concentration: 2mM,0.946 ± 0.1
same,NP40-soluble protein abundance,SECISBP2L; concentration: 4mM,1.03 ± 0.11
same,NP40-soluble protein abundance,SECISBP2L; concentration: 6mM,0.974 ± 0.2
same,NP40-soluble protein abundance,SECISBP2L; concentration: 8mM,0.964 ± 0.1
same,NP40-soluble protein abundance,SECISBP2L; concentration: 10mM,1 ± 0.093

# As a working copy, part of the list above.
compound,measurement,setting,value
Nc1ncnc2c1ncn2[C@@H]1O[C@H](COP(=O)(O)OP(=O)(O)OP(=O)(O)O)[C@@H](O)[C@H]1O [adenosine triphosphate],NP40-soluble protein abundance,RNF25; concentration: 10mM,0.882 ± 0.086
same,NP40-soluble protein abundance,SECISBP2L; concentration: 1mM,0.914 ± 0.075
